Sequences and labels used below:
T1: mouse Nucleoredoxin Cys208Ser (mouse) (UniProt P97346)
T1 sequence: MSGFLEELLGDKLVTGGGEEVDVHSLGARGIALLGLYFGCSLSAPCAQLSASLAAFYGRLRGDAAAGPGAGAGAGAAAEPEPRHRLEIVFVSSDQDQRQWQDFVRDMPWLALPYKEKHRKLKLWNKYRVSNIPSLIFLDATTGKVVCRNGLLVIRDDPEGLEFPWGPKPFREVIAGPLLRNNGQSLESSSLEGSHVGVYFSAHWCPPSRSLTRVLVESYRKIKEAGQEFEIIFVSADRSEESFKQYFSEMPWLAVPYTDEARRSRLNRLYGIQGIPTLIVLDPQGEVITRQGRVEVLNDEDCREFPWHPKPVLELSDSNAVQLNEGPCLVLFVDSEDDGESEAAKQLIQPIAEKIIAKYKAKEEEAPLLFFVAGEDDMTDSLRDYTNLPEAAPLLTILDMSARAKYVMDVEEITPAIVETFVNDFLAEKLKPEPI

B1: Fructose-bisphosphate aldolase A (protein, UniProt P04075 1-364)
chain: MPYQYPALTPEQKKELSDIAHRIVAPGKGILAADESTGSIAKRLQSIGTENTEENRRFYRQLLLTADDRVNPCIGGVILFHETLYQKADDGRPFPQVIKSKGGVVGIKVDKGVVPLAGTNGETTTQGLDGLSERCAQYKKDGADFAKWRCVLKIGEHTPSALAIMENANVLARYASICQQNGIVPIVEPEILPDGDHDLKRCQYVTEKVLAAVYKALSDHHIYLEGTLLKPNMVTPGHACTQKFSHEEIAMATVTALRRTVPPAVTGITFLSGGQSEEEASINLNAINKCPLLKPWALTFSYGRALQASALKAWGGKKENLKAAQEEYVKRALANSLACQGKYTPSGQAGAAASESLFVSNHAY
B2: Transaldolase (protein, UniProt P37837 1-337)
chain: MSSSPVKRQRMESALDQLKQFTTVVADTGDFHAIDEYKPQDATTNPSLILAAAQMPAYQELVEEAIAYGRKLGGSQEDQIKNAIDKLFVLFGAEILKKIPGRVSTEVDARLSFDKDAMVARARRLIELYKEAGISKDRILIKLSSTWEGIQAGKELEEQHGIHCNMTLLFSFAQAVACAEAGVTLISPFVGRILDWHVANTDKKSYEPLEDPGVKSVTKIYNYYKKFSYKTIVMGASFRNTGEIKALAGCDFLTISPKLLGELLQDNAKLVPVLSAKAAQASDLEKIHLDEKSFRWLHNEDQMAVEKLSDGIRKFAADAVKLERMLTERMFNAENGK
B3: Thioredoxin reductase 1, cytoplasmic (protein, UniProt Q16881 1-649)
chain: MGCAEGKAVAAAAPTELQTKGKNGDGRRRSAKDHHPGKTLPENPAGFTSTATADSRALLQAYIDGHSVVIFSRSTCTRCTEVKKLFKSLCVPYFVLELDQTEDGRALEGTLSELAAETDLPVVFVKQRKIGGHGPTLKAYQEGRLQKLLKMNGPEDLPKSYDYDLIIIGGGSGGLAAAKEAAQYGKKVMVLDFVTPTPLGTRWGLGGTCVNVGCIPKKLMHQAALLGQALQDSRNYGWKVEETVKHDWDRMIEAVQNHIGSLNWGYRVALREKKVVYENAYGQFIGPHRIKATNNKGKEKIYSAERFLIATGERPRYLGIPGDKEYCISSDDLFSLPYCPGKTLVVGASYVALECAGFLAGIGLDVTVMVRSILLRGFDQDMANKIGEHMEEHGIKFIRQFVPIKVEQIEAGTPGRLRVVAQSTNSEEIIEGEYNTVMLAIGRDACTRKIGLETVGVKINEKTGKIPVTDEEQTNVPYIYAIGDILEDKVELTPVAIQAGRLLAQRLYAGSTVKCDYENVPTTVFTPLEYGACGLSEEKAVEKFGEENIEVYHSYFWPLEWTIPSRDNNKCYAKIICNTKDNERVVGFHVLGPNAGEVTQGFAAALKCGLTKKQLDSTIGIHPVCAEVFTTLSVTKRSGASILQAGCUG
B4: Arginine-tRNA ligase, cytoplasmic (protein, UniProt P54136 1-660)
chain: MDVLVSECSARLLQQEEEIKSLTAEIDRLKNCGCLGASPNLEQLQEENLKLKYRLNILRKSLQAERNKPTKNMINIISRLQEVFGHAIKAAYPDLENPPLLVTPSQQAKFGDYQCNSAMGISQMLKTKEQKVNPREIAENITKHLPDNECIEKVEIAGPGFINVHLRKDFVSEQLTSLLVNGVQLPALGENKKVIVDFSSPNIAKEMHVGHLRSTIIGESISRLFEFAGYDVLRLNHVGDWGTQFGMLIAHLQDKFPDYLTVSPPIGDLQVFYKESKKRFDTEEEFKKRAYQCVVLLQGKNPDITKAWKLICDVSRQELNKIYDALDVSLIERGESFYQDRMNDIVKEFEDRGFVQVDDGRKIVFVPGCSIPLTIVKSDGGYTYDTSDLAAIKQRLFEEKADMIIYVVDNGQSVHFQTIFAAAQMIGWYDPKVTRVFHAGFGVVLGEDKKKFKTRSGETVRLMDLLGEGLKRSMDKLKEKERDKVLTAEELNAAQTSVAYGCIKYADLSHNRLNDYIFSFDKMLDDRGNTAAYLLYAFTRIRSIARLANIDEEMLQKAARETKILLDHEKEWKLGRCILRFPEILQKILDDLFLHTLCDYIYELATAFTEFYDSCYCVEKDRQTGKILKVNMWRMLLCEAVAAVMAKGFDILGIKPVQRM
B5: Septin-7 (protein, UniProt Q16181 1-437)
chain: MSVSARSAAAEERSVNSSTMVAQQKNLEGYVGFANLPNQVYRKSVKRGFEFTLMVVGESGLGKSTLINSLFLTDLYSPEYPGPSHRIKKTVQVEQSKVLIKEGGVQLLLTIVDTPGFGDAVDNSNCWQPVIDYIDSKFEDYLNAESRVNRRQMPDNRVQCCLYFIAPSGHGLKPLDIEFMKRLHEKVNIIPLIAKADTLTPEECQQFKKQIMKEIQEHKIKIYEFPETDDEEENKLVKKIKDRLPLAVVGSNTIIEVNGKRVRGRQYPWGVAEVENGEHCDFTILRNMLIRTHMQDLKDVTNNVHYENYRSRKLAAVTYNGVDNNKNKGQLTKSPLAQMEEERREHVAKMKKMEMEMEQVFEMKVKEKVQKLKDSEAELQRRHEQMKKNLEAQHKELEEKRRQFEDEKANWEAQQRILEQQNSSRTLEKNKKKGKIF
B6: Ran-binding protein 3 (protein, UniProt Q9H6Z4 1-567)
chain: MADLANEEKPAIAPPVFVFQKDKGQKSPAEQKNLSDSGEEPRGEAEAPHHGTGHPESAGEHALEPPAPAGASASTPPPPAPEAQLPPFPRELAGRSAGGSSPEGGEDSDREDGNYCPPVKRERTSSLTQFPPSQSEERSSGFRLKPPTLIHGQAPSAGLPSQKPKEQQRSVLRPAVLQAPQPKALSQTVPSSGTNGVSLPADCTGAVPAASPDTAAWRSPSEAADEVCALEEKEPQKNESSNASEEEACEKKDPATQQAFVFGQNLRDRVKLINESVDEADMENAGHPSADTPTATNYFLQYISSSLENSTNSADASSNKFVFGQNMSERVLSPPKLNEVSSDANRENAAAESGSESSSQEATPEKESLAESAAAYTKATARKCLLEKVEVITGEEAESNVLQMQCKLFVFDKTSQSWVERGRGLLRLNDMASTDDGTLQSRLVMRTQGSLRLILNTKLWAQMQIDKASEKSIRITAMDTEDQGVKVFLISASSKDTGQLYAALHHRILALRSRVEQEQEAKMPAPEPGAAPSNEEDDSDDDDVLAPSGATAAGAGDEGDGQTTGST
B7: Synaptic vesicle membrane protein VAT-1 homolog (protein, UniProt Q99536 1-393)
chain: MSDEREVAEAATGEDASSPPPKTEAASDPQHPAASEGAAAAAASPPLLRCLVLTGFGGYDKVKLQSRPAAPPAPGPGQLTLRLRACGLNFADLMARQGLYDRLPPLPVTPGMEGAGVVIAVGEGVSDRKAGDRVMVLNRSGMWQEEVTVPSVQTFLIPEAMTFEEAAALLVNYITAYMVLFDFGNLQPGHSVLVHMAAGGVGMAAVQLCRTVENVTVFGTASASKHEALKENGVTHPIDYHTTDYVDEIKKISPKGVDIVMDPLGGSDTAKGYNLLKPMGKVVTYGMANLLTGPKRNLMALARTWWNQFSVTALQLLQANRAVCGFHLGYLDGEVELVSGVVARLLALYNQGHIKPHIDSVWPFEKVADAMKQMQEKKNVGKVLLVPGPEKEN
B8: Coatomer subunit delta (protein, UniProt P48444 1-511)
chain: MVLLAAAVCTKAGKAIVSRQFVEMTRTRIEGLLAAFPKLMNTGKQHTFVETESVRYVYQPMEKLYMVLITTKNSNILEDLETLRLFSRVIPEYCRALEENEISEHCFDLIFAFDEIVALGYRENVNLAQIRTFTEMDSHEEKVFRAVRETQEREAKAEMRRKAKELQQARRDAERQGKKAPGFGGFGSSAVSGGSTAAMITETIIETDKPKVAPAPARPSGPSKALKLGAKGKEVDNFVDKLKSEGETIMSSSMGKRTSEATKMHAPPINMESVHMKIEEKITLTCGRDGGLQNMELHGMIMLRISDDKYGRIRLHVENEDKKGVQLQTHPNVDKKLFTAESLIGLKNPEKSFPVNSDVGVLKWRLQTTEESFIPLTINCWPSESGNGCDVNIEYELQEDNLELNDVVITIPLPSGVGAPVIGEIDGEYRHDSRRNTLEWCLPVIDAKNKSGSLEFSIAGQPNDFFPVQVSFVSKKNYCNIQVTKVTQVDGNSPVRFSTETTFLVDKYEIL

These are yes or no findings as the source states them, for the method shown. Binding seen in cells or lysates may run through a third protein. These calls come from enrichment with a bait or labelling near it, and not all partners need be listed.

This assay concerns the target T1, mouse Nucleoredoxin Cys208Ser (mouse). The assay can be described thus: affinity purification with mass spectrometry; intermediate trapping: mNrx Cys208Ser coupled to CNBr-activated sepharose and reduced with 10 mM DTT; clarified SH-SY5Y lysate (NP40 lysis buffer) 2 h at 4°C; washed with 100 mM Tris, 300 mM NaCl, pH 8 and TE buffer; trapped proteins (mixed disulfide) eluted with 10 mM DTT and 10 mM TCEP; only the target purified.
B1: the binding entry is “binds”.
On to B2, for which the binding result is reported as “binds”.
For B3, the binding result was “binds”.
For B4, the binding entry was “binds”.
On to B5, for which the binding result is given as “binds”.
For the molecule B6, the binding entry was “binds”.
Take B7: the binding entry is “binds”.
In the case of B8 it was “binds”.

These data come from paper PMC6280245.
